Results on one substance are retold here after article doi:10.1101/2021.10.12.464076.

Amino acid sequences for entries named in this document (tags omitted).
UniProt Q8IY92: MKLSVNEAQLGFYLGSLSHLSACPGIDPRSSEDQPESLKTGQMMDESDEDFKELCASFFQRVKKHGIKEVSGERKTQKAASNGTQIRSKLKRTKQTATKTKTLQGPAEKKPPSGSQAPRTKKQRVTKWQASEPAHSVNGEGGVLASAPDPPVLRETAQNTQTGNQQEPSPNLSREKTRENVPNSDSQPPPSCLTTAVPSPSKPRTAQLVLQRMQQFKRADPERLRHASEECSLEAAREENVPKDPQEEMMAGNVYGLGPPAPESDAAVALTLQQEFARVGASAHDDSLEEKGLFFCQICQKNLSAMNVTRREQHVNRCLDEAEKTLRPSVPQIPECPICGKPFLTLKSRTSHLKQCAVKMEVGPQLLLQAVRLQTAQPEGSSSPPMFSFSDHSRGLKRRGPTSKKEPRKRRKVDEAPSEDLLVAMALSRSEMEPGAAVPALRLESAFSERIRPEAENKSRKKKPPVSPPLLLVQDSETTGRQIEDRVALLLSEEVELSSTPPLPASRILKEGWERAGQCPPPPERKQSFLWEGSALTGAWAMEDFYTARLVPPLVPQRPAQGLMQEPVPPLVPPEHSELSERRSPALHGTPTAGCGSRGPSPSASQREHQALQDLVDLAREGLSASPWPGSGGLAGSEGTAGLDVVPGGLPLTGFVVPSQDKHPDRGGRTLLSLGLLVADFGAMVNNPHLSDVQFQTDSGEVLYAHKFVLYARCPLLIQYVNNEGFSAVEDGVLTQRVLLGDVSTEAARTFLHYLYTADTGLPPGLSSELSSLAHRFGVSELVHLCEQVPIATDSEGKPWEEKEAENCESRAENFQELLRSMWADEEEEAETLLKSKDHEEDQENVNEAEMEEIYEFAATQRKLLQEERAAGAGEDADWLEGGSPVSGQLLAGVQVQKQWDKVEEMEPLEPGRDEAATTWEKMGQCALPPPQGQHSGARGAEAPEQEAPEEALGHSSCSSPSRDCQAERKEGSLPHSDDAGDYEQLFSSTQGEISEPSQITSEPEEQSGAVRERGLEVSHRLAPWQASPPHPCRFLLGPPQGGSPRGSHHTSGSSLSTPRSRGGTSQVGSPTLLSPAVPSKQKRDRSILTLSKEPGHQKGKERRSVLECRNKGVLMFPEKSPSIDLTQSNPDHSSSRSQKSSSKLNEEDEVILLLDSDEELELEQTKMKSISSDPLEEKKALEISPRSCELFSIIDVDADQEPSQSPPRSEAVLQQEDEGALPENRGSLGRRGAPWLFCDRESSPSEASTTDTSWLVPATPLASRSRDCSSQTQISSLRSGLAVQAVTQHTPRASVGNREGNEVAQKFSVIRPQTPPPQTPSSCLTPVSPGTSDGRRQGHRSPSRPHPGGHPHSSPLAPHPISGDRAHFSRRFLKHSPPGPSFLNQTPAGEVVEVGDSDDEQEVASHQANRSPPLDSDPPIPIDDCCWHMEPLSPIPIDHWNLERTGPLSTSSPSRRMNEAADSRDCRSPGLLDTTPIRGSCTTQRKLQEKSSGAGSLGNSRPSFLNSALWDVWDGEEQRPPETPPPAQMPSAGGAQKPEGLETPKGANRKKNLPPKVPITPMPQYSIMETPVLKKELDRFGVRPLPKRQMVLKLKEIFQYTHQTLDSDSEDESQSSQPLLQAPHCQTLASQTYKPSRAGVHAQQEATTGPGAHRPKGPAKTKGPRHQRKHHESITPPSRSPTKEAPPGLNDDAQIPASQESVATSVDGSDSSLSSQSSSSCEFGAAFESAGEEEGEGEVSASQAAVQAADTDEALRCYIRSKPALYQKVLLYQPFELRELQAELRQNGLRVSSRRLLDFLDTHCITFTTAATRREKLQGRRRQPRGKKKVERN
UniProt P52701: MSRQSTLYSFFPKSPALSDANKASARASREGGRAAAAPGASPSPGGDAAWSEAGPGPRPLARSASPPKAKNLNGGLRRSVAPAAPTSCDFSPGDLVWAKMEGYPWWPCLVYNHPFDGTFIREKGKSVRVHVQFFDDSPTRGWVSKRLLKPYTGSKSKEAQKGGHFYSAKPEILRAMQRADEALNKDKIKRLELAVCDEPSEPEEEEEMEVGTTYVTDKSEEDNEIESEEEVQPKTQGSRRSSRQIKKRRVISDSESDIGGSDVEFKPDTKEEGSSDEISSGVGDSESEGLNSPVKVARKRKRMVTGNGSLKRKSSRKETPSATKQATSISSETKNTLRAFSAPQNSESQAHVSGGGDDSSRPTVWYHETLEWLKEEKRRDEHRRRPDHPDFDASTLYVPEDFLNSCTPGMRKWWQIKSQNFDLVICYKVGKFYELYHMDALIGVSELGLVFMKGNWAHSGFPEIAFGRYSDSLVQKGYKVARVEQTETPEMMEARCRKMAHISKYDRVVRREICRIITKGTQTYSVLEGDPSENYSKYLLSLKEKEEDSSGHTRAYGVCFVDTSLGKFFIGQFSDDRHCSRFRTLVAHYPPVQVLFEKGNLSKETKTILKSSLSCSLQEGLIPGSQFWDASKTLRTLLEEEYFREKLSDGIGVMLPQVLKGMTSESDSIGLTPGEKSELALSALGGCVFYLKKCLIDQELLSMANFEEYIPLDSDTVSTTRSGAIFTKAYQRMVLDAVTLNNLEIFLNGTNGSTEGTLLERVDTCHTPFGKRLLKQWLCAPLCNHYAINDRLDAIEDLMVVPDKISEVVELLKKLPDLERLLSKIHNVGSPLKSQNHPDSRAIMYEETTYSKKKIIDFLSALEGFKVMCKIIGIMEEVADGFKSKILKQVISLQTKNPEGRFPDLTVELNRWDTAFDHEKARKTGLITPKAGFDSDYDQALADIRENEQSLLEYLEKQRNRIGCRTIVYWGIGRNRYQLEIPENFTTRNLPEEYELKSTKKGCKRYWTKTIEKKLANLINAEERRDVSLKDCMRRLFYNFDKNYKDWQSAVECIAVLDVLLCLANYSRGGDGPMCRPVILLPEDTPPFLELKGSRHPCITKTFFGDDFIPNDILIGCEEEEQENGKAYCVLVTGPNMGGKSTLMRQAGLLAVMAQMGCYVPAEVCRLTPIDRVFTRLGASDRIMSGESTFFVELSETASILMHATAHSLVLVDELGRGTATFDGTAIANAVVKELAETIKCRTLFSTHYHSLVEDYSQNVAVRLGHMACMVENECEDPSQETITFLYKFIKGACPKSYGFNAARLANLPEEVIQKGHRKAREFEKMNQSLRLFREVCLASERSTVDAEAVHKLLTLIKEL

These are yes or no findings as the source states them, for the method shown. In cells and extracts the contact can be indirect. Here binding means that the protein was enriched with, or labelled near, the bait; the list need not be complete.

For the experiment, the target named is endogenous SLX4 (human (endogenous in HeLa)) (UniProt Q8IY92). Nature of the experiment: affinity purification with mass spectrometry.

Regarding “endogenous MSH6 (from UniProt P52701 1-1360)”, the binding result was “binds”.
